Reference: PubChem BioAssay AID686937 (Drosophila RNAi Screening Center, 2013)

Assay: 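Genes whose loss weakens secretory pathway function in fly cells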 (primary screen)
Cell system: Drosophila S2 cells expressing secreted horseradish peroxidase
Reagent: long dsRNA against Drosophila genes
Time to read-out: about 5.5 days (5 days dsRNA, then 12 h reporter induction)
Treatment: reporter expression induced after 5 days of dsRNA, read 12 h later; inducer not stated
Read-out: 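After 5 days of dsRNA and 12 h of reporter induction, medium peroxidase read by chemiluminescence and scored as per-plate z-score; higher values mean more reporter released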
Direction: z-score: higher = more reporter secreted into medium
In all, the deposit lists about 23,000 reagents; shown is an unselected part of those that have a named target and a result. 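Reduced-secretion tags in replicate 1 do not always agree with the z-scores; no criterion for assigning the tags was given.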 A plus sign joins genes that one reagent is predicted to hit. Further read-outs or replicates are left out here. Reagent sequences are not shown. Not stated in the record: the amount of reagent.

SKIP [DRSC14713]: z-score, replicate 1 = 0.18
SKIP [DRSC14714]: z-score, replicate 1 = 0.3
SKIP [DRSC15864]: z-score, replicate 1 = 0.19
SKIP [DRSC16195]: z-score, replicate 1 = -0.17
SKIP [DRSC16196]: z-score, replicate 1 = 0.3
CG30428 [DRSC04041]: z-score, replicate 1 = 0.03

Laid out differently: results already given
{"gene knocked down": "SKIP", "amplicon": "DRSC15864", "z-score, replicate 1": 0.19}
{"gene knocked down": "SKIP", "amplicon": "DRSC16195", "z-score, replicate 1": -0.17}

Further reagents follow.
hlk [DRSC05021]: z-score, replicate 1 = 0.02
hlk [DRSC05022]: z-score, replicate 1 = -0.12
CG7737 [DRSC07033]: z-score, replicate 1 = 0.41
CG6659 [DRSC20003]: z-score, replicate 1 = 0.04
Cep97 [DRSC00637]: z-score, replicate 1 = 0.34
Adk3 [DRSC05917]: z-score, replicate 1 = 0.15
mad2 [DRSC10274]: z-score, replicate 1 = -0.71
CG32579 [DRSC19872]: z-score, replicate 1 = 0.54
CG9733 [DRSC16549]: z-score, replicate 1 = 0.19
CG42505 + CG42504 + CG31358 [DRSC15235]: z-score, replicate 1 = 0.25
CG42505 + CG42504 + CG31358 [DRSC15308]: z-score, replicate 1 = -0.04
CG42505 + CG42504 + CG31358 [DRSC15309]: z-score, replicate 1 = 0.05
